The target in the experiment is T1, NTAP-AK8 (UniProt Q96MA6).
T1 sequence: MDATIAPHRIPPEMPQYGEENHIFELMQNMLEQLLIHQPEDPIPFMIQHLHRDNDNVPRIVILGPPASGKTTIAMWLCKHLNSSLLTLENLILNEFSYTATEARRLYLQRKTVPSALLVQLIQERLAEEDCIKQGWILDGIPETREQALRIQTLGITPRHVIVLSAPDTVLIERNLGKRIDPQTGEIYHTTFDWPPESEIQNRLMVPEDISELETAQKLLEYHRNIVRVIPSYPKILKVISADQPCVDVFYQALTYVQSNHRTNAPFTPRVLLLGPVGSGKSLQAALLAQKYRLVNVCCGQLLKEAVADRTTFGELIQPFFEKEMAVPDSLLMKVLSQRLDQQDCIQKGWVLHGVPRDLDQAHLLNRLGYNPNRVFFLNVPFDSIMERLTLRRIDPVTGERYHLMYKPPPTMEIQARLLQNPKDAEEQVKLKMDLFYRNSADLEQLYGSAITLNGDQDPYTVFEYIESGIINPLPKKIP
Kind of experiment: tandem affinity purification (TAP); co-expression in HEK293 cells, TAP of recombinant AK8, standard 150 mM NaCl lysis buffer.

These are yes or no findings as the source states them, for the method shown. Binding can be weak; no strength is given.

In PMC7606486, “CFAP45 deficiency causes situs abnormalities and asthenospermia by disrupting an axonemal adenine nucleotide homeostasis module” (Nature Communications, 2020) one finds binding data, which are given here for one substance.

“recombinant, epitope-tagged CFAP52 (552 amino acid isoform) (human)”: the binding entry is reported as “binds”.
